The list shows only some results of the screen, not a fair sample: it is rich in T/C values a quarter to a half above the control, in often repeated tests (any T/C) and in doses without a T/C. Other doses and runs of a compound stand elsewhere. T/C is the treated group as % of the vehicle group. Some entries give survivors of the animals treated and no T/C: the source holds a T/C of zero for them, seemingly a mark for toxic or unscored doses. Some survivor counts are full or nearly so, which does not show that the dose was tolerated: the source hardly ever lists a survival T/C far under the control, and the zero likely stands for such cases as well. Counts of survivors are from the toxicity check (mostly the fifth day) where no day follows; animals may have died later. Schedule codes are those of the source, read here as Q, the interval in days (D) or hours (H), X, the number of doses. Where survival is the endpoint, the PubChem record calls one and a half times the control and up active, and a quarter to a half above the control has no call in these data; cut-offs in other NCI protocols can differ. Some entries were tested several times; the results are listed from low to high. Some T/C values are followed by the survivors on the day toxicity was checked, most often the fifth; without a count, all were alive then.
Tested on: P388 leukemia ip, CD2F1 mice, survival T/C
Assay: NCI In Vivo Anticancer Drug Screen. Data for tumor model P388 Leukemia (intraperitoneal) in CD2F1 (CDF1) mice
Conditions: T/C endpoint: median survival time, higher T/C = longer survival
[1] = dose: 200.0 mg/kg/injection, schedule: Q01DX009 (ip), vehicle: saline with Tween-80
[2] = dose: 50.0 mg/kg/injection, schedule: Q01DX009 (ip), vehicle: Klucel (hydroxypropylcellulose) (HPC)
[3] = dose: 100.0 mg/kg/injection, schedule: Q01DX009 (ip), vehicle: Klucel (hydroxypropylcellulose) (HPC)
[4] = dose: 200.0 mg/kg/injection, schedule: Q01DX009 (ip), vehicle: Klucel (hydroxypropylcellulose) (HPC)
[5] = dose: 200.0 mg/kg/injection, schedule: Q04DX003 (ip), vehicle: saline with Tween-80
[6] = dose: 240.0 mg/kg/injection, schedule: Q01DX005 (ip), vehicle: saline
[7] = dose: 100.0 mg/kg/injection, schedule: Q04DX003 (ip), vehicle: saline with Tween-80
[8] = dose: 400.0 mg/kg/injection, schedule: Q04DX003 (ip), vehicle: saline with Tween-80
[9] = dose: 50.0 mg/kg/injection, schedule: Q01DX009 (ip), vehicle: saline with Tween-80
[10] = dose: 100.0 mg/kg/injection, schedule: Q01DX009 (ip), vehicle: saline with Tween-80
[11] = dose: 25.0 mg/kg/injection, schedule: Q01DX009 (ip), vehicle: saline with Tween-80

CCCCN=C(N)NN=C(c1ccc(C)cc1)c1ccc(C)cc1
survivor count (dose: 100.0 mg/kg/injection, schedule: Q04DX002 (ip), vehicle: saline with Tween-80): 0 of 6

C[S+](C)CCCNC(=O)c1csc(-c2cscn2)n1
survivor count (dose: 50.0 mg/kg/injection, schedule: Q01DX005 (ip), vehicle: water): 1 of 6 | survivor count (dose: 100.0 mg/kg/injection, schedule: Q01DX005 (ip), vehicle: water): 0 of 6 | survivor count (dose: 200.0 mg/kg/injection, schedule: Q01DX005 (ip), vehicle: water): 0 of 6

COc1cc(N(CCCl)CCCl)ccc1C=Nc1ccccc1C(=O)O
survivor count (dose: 28.12 mg/kg/injection, schedule: Q04DX003 (ip), vehicle: saline with Tween-80): 5 of 6 | survivor count (dose: 37.5 mg/kg/injection, schedule: Q04DX003 (ip), vehicle: saline with Tween-80): 6 of 6 | survivor count (dose: 75.0 mg/kg/injection, schedule: Q04DX003 (ip), vehicle: saline with Tween-80): 2 of 6

Cc1c(-c2ccccc2)ccnc1/C=N/NC(=S)NCc1cccnc1
survivor count [1]: 0 of 6

CC1CCCCN1CCCNC(=O)Nc1ccc(Cc2ccc(NC(=O)NCCCN3CCCCC3C)cc2)cc1 (stereo not drawn)
survivor count (dose: 3.12 mg/kg/injection, schedule: Q01DX009 (ip), vehicle: Klucel (hydroxypropylcellulose) (HPC)): 3 of 6 | survivor count (dose: 6.25 mg/kg/injection, schedule: Q01DX009 (ip), vehicle: Klucel (hydroxypropylcellulose) (HPC)): 1 of 6 | survivor count (dose: 12.5 mg/kg/injection, schedule: Q01DX009 (ip), vehicle: Klucel (hydroxypropylcellulose) (HPC)): 2 of 6 | survivor count (dose: 25.0 mg/kg/injection, schedule: Q01DX009 (ip), vehicle: Klucel (hydroxypropylcellulose) (HPC)): 0 of 6 | survivor count [2]: 0 of 6 | survivor count [3]: 0 of 6 | survivor count [4]: 0 of 6

Cc1ccc2c(c1)-c1[nH]c3ccccc3c1CS2
survivor count (dose: 400.0 mg/kg/injection, schedule: Q04DX003 (ip), vehicle: Klucel (hydroxypropylcellulose) (HPC)): 3 of 6

Cc1ccc(S(=O)(=O)C(Cl)Cl)cc1
T/C [5]: 125 % of control

O=C(N/N=C/c1ccccn1)N/N=C/c1ccccn1
survivor count (dose: 200.0 mg/kg/injection, schedule: Q01DX009 (ip), vehicle: distilled water + Tween-80): 3 of 6 | survivor count (dose: 400.0 mg/kg/injection, schedule: Q01DX009 (ip), vehicle: distilled water + Tween-80): 0 of 6

O=C1C2=Cc3ccccc3CN2Cc2ccccc21
survivor count (dose: 75.0 mg/kg/injection, schedule: Q01DX009 (ip), vehicle: saline with Tween-80): 6 of 6

O=C(O)C1Cc2c([nH]c3ccccc23)C(CO)N1 (stereo not drawn)
survivor count (dose: 100.0 mg/kg/injection, schedule: Q01DX009 (ip), vehicle: suspension in saline): 2 of 6

CSCSCC(CO)NC(=O)C(Cl)Cl (stereo not drawn)
survivor count (dose: 100.0 mg/kg/injection, schedule: Q01DX009 (ip), vehicle: water): 6 of 6

[O-][Br+2]([O-])O
survivor count [6]: 0 of 6

CCC(=N\NC(=S)NCCN(C)C)/C(C)=N/NC(=S)NCCN(C)C
survivor count (dose: 6.25 mg/kg/injection, schedule: Q04DX003 (ip), vehicle: saline): 6 of 6 | survivor count (dose: 12.5 mg/kg/injection, schedule: Q04DX003 (ip), vehicle: saline): 0 of 6 | survivor count (dose: 25.0 mg/kg/injection, schedule: Q04DX003 (ip), vehicle: saline): 0 of 6 | survivor count [7]: 0 of 6 | survivor count [5]: 0 of 6 | survivor count [8]: 0 of 6

N#CC1C(=O)NC(=S)NC1c1ccc(Cl)cc1 (stereo not drawn)
survivor count [4]: 4 of 6

Cc1coc2c1C(=O)C(=O)c1c-2ccc2c1CCCC2(C)CO (stereo not drawn) (tested in a mixture with another compound)
survivor count [1]: 3 of 3

Cn1c(=O)c2c(nnc(-c3ccc(Cl)c(Cl)c3)[n+]2[O-])n(C)c1=O
survivor count (dose: 50.0 mg/kg/injection, schedule: Q01DX001 (ip), vehicle: Klucel (hydroxypropylcellulose) (HPC)): 1 of 6 | survivor count (dose: 100.0 mg/kg/injection, schedule: Q01DX001 (ip), vehicle: Klucel (hydroxypropylcellulose) (HPC)): 2 of 6

Nc1nc(N)c2nc(-c3ccc([N+](=O)[O-])cc3)c(Cl)nc2n1
survivor count (dose: 240.0 mg/kg/injection, schedule: Q01DX005 (ip), vehicle: saline with Tween-80): 3 of 6

CCOc1ccc(N=c2ccn3ccccc3c2)cc1
survivor count [9]: 0 of 6 | survivor count [10]: 0 of 6 | survivor count [1]: 0 of 6

CN1C(C)(C)CC(O)CC1(C)C
survivor count [6]: 2 of 6

FC(F)(F)COP1(OCC(F)(F)F)(OCC(F)(F)F)SC(C(F)(F)F)=C(C(F)(F)F)S1
T/C (dose: 200.0 mg/kg/injection, schedule: Q04DX002 (ip), vehicle: saline): 128 % of control [4 of 5 alive] | survivor count (dose: 400.0 mg/kg/injection, schedule: Q04DX002 (ip), vehicle: saline): 5 of 5

COc1ccc2c(c1)/C(=C/CCN(C)C)c1ccccc1S2
T/C (dose: 33.0 mg/kg/injection, schedule: Q04DX003 (ip), vehicle: saline): 130 % of control | T/C (dose: 50.0 mg/kg/injection, schedule: Q04DX003 (ip), vehicle: saline): 127 and 130 % of control | survivor count (dose: 75.0 mg/kg/injection, schedule: Q04DX003 (ip), vehicle: saline): 5 of 6

CSc1nc(C)c(Br)c(Sc2nc(N)nc3nc[nH]c23)n1
T/C [11]: 130 % of control | T/C (dose: 66.0 mg/kg/injection, schedule: Q04DX003 (ip), vehicle: saline with Tween-80): 136 % of control | survivor count [10]: 6 of 6 | T/C [7]: 127 and 145 % of control | T/C (dose: 150.0 mg/kg/injection, schedule: Q04DX003 (ip), vehicle: saline with Tween-80): 127 % of control | survivor count [1]: 6 of 6 | survivor count [8]: 5 of 6

COc1cc(/C=N/NS(=O)(=O)c2ccc(C)cc2)cc([N+](=O)[O-])c1O
survivor count (dose: 12.5 mg/kg/injection, schedule: Q01DX009 (ip), vehicle: other): 6 of 6

C=CC(=NC(C)(C)C)Nc1ccccc1C#N
survivor count [11]: 6 of 6 | survivor count [9]: 0 of 6 | survivor count [10]: 0 of 6 | survivor count [1]: 0 of 6

C=C1C(=O)OC(C)(C)C1c1ccccc1 (stereo not drawn)
survivor count [4]: 6 of 6

Nc1nc(-c2cccnc2)cc(-c2cc(-c3cccnc3)nc(N)n2)n1
survivor count [6]: 1 of 6

COC(=O)C(CCC(=O)CCl)N1C(=O)c2ccccc2C1=O (stereo not drawn)
survivor count [3]: 3 of 6 | survivor count [4]: 0 of 6

O=C1NC(=O)c2ccc3c4ccc5c6c(ccc(c7ccc1c2c73)c64)C(=O)N(c1ccccc1)C5=O
survivor count (dose: 25.0 mg/kg/injection, schedule: Q01DX005 (ip), vehicle: Klucel (hydroxypropylcellulose) (HPC)): 6 of 6

CCOc1ccc(OCC)c(C(O)C(C)NC(C)C)c1 (stereo not drawn)
survivor count [2]: 3 of 6 | survivor count [3]: 0 of 6 | survivor count [4]: 0 of 6

CC1(C)OC(CC(=O)O)C23COC(C(=O)C4(C)C2CCC2(C)C(C5CCOC5)OC(=O)C5OC524)C13 (stereo not drawn)
survivor count (dose: 8.0 mg/kg/injection, schedule: Q01DX009 (ip), vehicle: saline + alcohol): 4 of 6

CCOC(=O)C(F)C(Br)C(=O)OCC (stereo not drawn)
T/C [9]: 130 % of control | T/C [10]: 133 % of control | survivor count [1]: 3 of 6 | survivor count (dose: 400.0 mg/kg/injection, schedule: Q01DX009 (ip), vehicle: saline with Tween-80): 0 of 6

— PubChem BioAssay AID330 (DTP/NCI, 2004)
